According to patent publication US10865191B2, “Heterocyclic compounds useful as modulators of TNF alpha” (BRISTOL-MYERS SQUIBB COMPANY, priority 2015, dated 2020):
Some of these results come from one statement about several compounds together.

Chains of the proteins cited; added tags and fusions are not shown. Residues count along the entry.
UniProt P01375, 77-233 limits assumed: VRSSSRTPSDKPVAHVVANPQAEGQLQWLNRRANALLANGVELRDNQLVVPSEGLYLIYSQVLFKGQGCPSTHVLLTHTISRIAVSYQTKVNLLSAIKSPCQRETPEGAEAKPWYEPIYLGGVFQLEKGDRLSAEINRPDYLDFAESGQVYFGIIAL

Molecular target: TNFα (Homo sapiens, UniProt P01375)
Assay: TNF induced HEK-Blue assay (NF-kB-driven secreted alkaline phosphatase reporter)
Format: cell-based
Details: TNFα 0.5 ng/mL, HEK-Blue-CD40L cells, 18 h; read-out: IC50 values measured in the TNF induced HEK-Blue assay
Summary of the method: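 HEK-Blue-CD40L cells (NF-kB-driven SEAP reporter), 20,000/well, added after 30 min pre-incubation of compound (0.004–25 μM final) with TNFα 0.5 ng/mL final at 37 °C; 18 h incubation. SEAP read with QUANTI-Blue at 620 nm; IC50 from 4-parameter logistic fit, normalized to unstimulated and stimulated DMSO controls.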

SMILES | IC50 [µM]
Cc1nc2ccc(-c3cnc(C(C)(C)O)nc3)cc2c(N[C@H](C)c2cc(C(N)=O)ccc2F)c1C [Example 315, (R)-4-fluoro-3-(1-((6-(2-(2-hydroxypropan-2-yl)pyrimidin-5-yl)-2,3-dimethylquinolin-4-yl)amino)ethyl)benzamide] | ≤ 25
C[C@@H](Nc1c(Cl)cnc2ccccc12)c1cc(-c2ccccc2)ccc1F [Example 459, (R)-3-chloro-N-(1-(4-fluoro-[1,1′-biphenyl]-3-yl)ethyl)quinolin-4-amine] | ≤ 25
CC(Nc1c(Cl)cnc2ccc(-c3cnc(C(C)(C)O)nc3)cc12)c1cc(F)ccc1F (racemic) [Example 160, 2-(5-(3-chloro-4-((1-(2,5-difluorophenyl)ethyl)amino)quinolin-6-yl)pyrimidin-2-yl)propan-2-ol] | ≤ 25
Cc1nc2c(F)cc(-c3cnc(C(C)(C)O)nc3)cc2c(N[C@@H](c2ccccc2F)C(F)F)c1Cl [Example 299, (S)-2-(5-(3-chloro-4-((2,2-difluoro-1-(2-fluorophenyl)ethyl)amino)-8-fluoro-2-methylquinolin-6-yl)pyrimidin-2-yl)propan-2-ol] | ≤ 25
C[C@@H](Nc1c(Cl)cnc2ccc(-c3cnc(NCC(N)=O)nc3)cc12)c1ccccc1F [Example 585, (R)-2-((5-(3-chloro-4-((1-(2-fluorophenyl)ethyl)amino)quinolin-6-yl)pyrimidin-2-yl)amino)acetamide] | ≤ 25
CC(Nc1c(Cl)cnc2ccc(-c3ccc(C(C)(C)O)cc3)cc12)c1ccncc1 (racemic) [Example 176, 2-(4-(3-chloro-4-((1-(pyridin-4-yl)ethyl)amino)quinolin-6-yl)phenyl)propan-2-ol] | ≤ 25
Cc1nc2ccc(-c3ccc(C(C)(C)O)cc3)cc2c(N[C@H](C)c2cc(C(N)=O)ccc2F)c1Cl [Example 312, (R)-3-(1-((3-chloro-6-(4-(2-hydroxypropan-2-yl)phenyl)-2-methylquinolin-4-yl)amino)ethyl)-4-fluorobenzamide] | ≤ 25
Cc1ccc(F)c([C@@H](C)Nc2c(Cl)c(C)nc3ccc(-c4cnc(C(C)(C)O)nc4)cc23)c1 [Example 334, (R)-2-(5-(3-chloro-4-((1-(2-fluoro-5-methylphenyl)ethyl)amino)-2-methylquinolin-6-yl)pyrimidin-2-yl)propan-2-ol] | ≤ 25
CC(Nc1c(Cl)cnc2cc(F)c(-c3ccc(C(O)CN4CCOCC4)cc3)cc12)c1ccccc1F (centres unmarked) [Example 277, 1-(4-(3-chloro-7-fluoro-4-((1-(2-fluorophenyl)ethyl)amino)quinolin-6-yl)phenyl)-2-morpholinoethan-1-ol] | ≤ 25
CCC(Nc1c(Cl)cnc2ccc(-c3cnc(N4CCNC(=O)C4)nc3)cc12)c1nc(C(N)=O)ccc1F (racemic) [Example 23, 6-(1-((3-chloro-6-(2-(3-oxopiperazin-1-yl)pyrimidin-5-yl)quinolin-4-yl)amino)propyl)-5-fluoropicolinamide] | ≤ 25
CC(Nc1ccnc2cc(F)c(-c3cnc(C4(O)CCOCC4)nc3)cc12)c1ccccc1F (racemic) [Example 287, 4-(5-(7-fluoro-4-((1-(2-fluorophenyl)ethyl)amino)quinolin-6-yl)pyrimidin-2-yl)tetrahydro-2H-pyran-4-ol] | ≤ 25
Fc1ccc(Br)cc1[C@H](Nc1c(Cl)cnc2ccccc12)C(F)F [Example 509, (S)—N-(1-(5-bromo-2-fluorophenyl)-2,2-difluoroethyl)-3-chloroquinolin-4-amine] | ≤ 25
C[C@@H](Nc1c(Cl)cnc2ccc(F)cc12)c1cc(-c2cncnc2)ccc1F [Example 544, (R)-3-chloro-6-fluoro-N-(1-(2-fluoro-5-(pyrimidin-5-yl)phenyl)ethyl)quinolin-4-amine] | ≤ 25
C[C@@H](Nc1c(Cl)cnc2ccc(-c3cnc(N4CCOCC4)nc3)cc12)c1ccccc1F [Example 219, (R)-3-chloro-N-(1-(2-fluorophenyl)ethyl)-6-(2-morpholinopyrimidin-5-yl)quinolin-4-amine] | ≤ 25
C[C@@H](Nc1c(Cl)cnc2cc(F)c(-c3cnc(C4CCN(CC(=O)O)CC4)nc3)cc12)c1ccccc1F [Example 594, (R)-2-(4-(5-(3-chloro-7-fluoro-4-((1-(2-fluorophenyl)ethyl)amino)quinolin-6-yl)pyrimidin-2-yl)piperidin-1-yl)acetic acid] | ≤ 25
O=C(O)CN1CCN(c2ccc(-c3ccc4ncc(Cl)c(N[C@@H](c5ccccc5F)C(F)F)c4c3)cn2)CC1 [Example 15, (S)-2-(4-(5-(3-chloro-4-((2,2-difluoro-1-(2-fluorophenyl)ethyl)amino)quinolin-6-yl)pyridin-2-yl)piperazin-1-yl)acetic acid] | ≤ 25
COc1cccc([C@@H](C)Nc2c(Cl)cnc3ccccc23)c1 [Example 462, (R)-3-chloro-N-(1-(3-methoxyphenyl)ethyl)quinolin-4-amine] | ≤ 25
Cc1nc2ccc(-c3cnc(C(C)(C)O)nc3)cc2c(N[C@@H](c2cc(C(N)CO)ccc2F)C(F)F)c1Cl (mixture of isomers) [Example 434, 2-(5-(4-(((1 S)-1-(5-(1-amino-2-hydroxyethyl)-2-fluorophenyl)-2,2-difluoroethyl)amino)-3-chloro-2-methylquinolin-6-yl)pyrimidin-2-yl)propan-2-ol] | ≤ 25
CNC(=O)c1ccc(-c2ccc3nc(C)c(F)c(Nc4cc(C)ccc4C)c3c2)cn1 [Example 186, 5-(4-((2,5-dimethylphenyl)amino)-3-fluoro-2-methylquinolin-6-yl)-N-methylpicolinamide] | ≤ 25
C=CCc1ccc(F)c([C@@H](C)Nc2c(Cl)cnc3ccccc23)c1 [Example 452, (R)—N-(1-(5-allyl-2-fluorophenyl)ethyl)-3-chloroquinolin-4-amine] | ≤ 25
CC(Nc1c(Cl)cnc2ccc(-c3ccc(C(C)(C)O)cc3)cc12)c1ccsc1 (racemic) [Example 196, 2-(4-(3-chloro-4-((1-(thiophen-3-yl)ethyl)amino)quinolin-6-yl)phenyl)propan-2-ol] | ≤ 25
Cc1ncc(-c2ccc(F)c([C@@H](C)Nc3c(Cl)cnc4ccccc34)c2)cn1 [Example 535, (R)-3-chloro-N-(1-(2-fluoro-5-(2-methylpyrimidin-5-yl)phenyl)ethyl)quinolin-4-amine] | ≤ 25
CC(C)(O)c1ncc(-c2ccc3ncc(Cl)c(NCc4ccc(Br)cc4-n4cccn4)c3c2)cn1 [Example 56, 2-(5-(4-((4-bromo-2-(1H-pyrazol-1-yl)benzyl)amino)-3-chloroquinolin-6-yl)pyrimidin-2-yl)propan-2-ol] | ≤ 25
CN(Nc1c(Cl)cnc2ccc(-c3cnc(C(C)(C)O)nc3)cc12)c1ccccc1 [Example 54, 2-(5-(3-chloro-4-(2-methyl-2-phenylhydrazinyl)quinolin-6-yl)pyrimidin-2-yl)propan-2-ol] | ≤ 25
C[C@@H](Nc1c(Cl)cnc2ccccc12)c1cc(-c2cc3ccccc3[nH]2)ccc1F [Example 528, (R)-3-chloro-N-(1-(2-fluoro-5-(1H-indol-2-yl)phenyl)ethyl)quinolin-4-amine] | ≤ 25
Cc1nc2cc(F)c(-c3cnc(C(C)(C)O)nc3)nc2c(N[C@H](C)c2cccc(C(O)CO)c2)c1Cl (stereo partly drawn) [Example 575, 1-(3-((R)-1-((3-chloro-7-fluoro-6-(2-(2-hydroxypropan-2-yl)pyrimidin-5-yl)-2-methyl-1,5-naphthyridin-4-yl)amino)ethyl)phenyl)ethane-1,2-diol] | ≤ 25
